{"source": "patent US11197477B2", "about": "“Aqueous capsule suspension concentrates based on 2-[(2,4-dichlorophenyl)methyl]-4,4′-dimethyl-3-isoxazolidinone” (priority 2016, dated 2021)", "origin": "cited, not measured here", "details": "cited from earlier work", "note": "At least one compound was matched to its structure with a doubt left.", "data": [{"compound": "CC1(C)CON(Cc2ccc(Cl)cc2Cl)C1=O", "note": "[DCPMI, 2-[(2,4-dichlorophenyl)methyl]-4,4′-dimethyl-3-isoxazolidinone]", "values": [{"measurement": "vapour pressure", "result": 0.88, "unit": "mPa"}]}]}
